Reference: paper doi:10.1101/2021.01.04.425272
No constants are given. Whether binding was seen depends on the method and setting. In cells and extracts the contact can be indirect. Some entries that bind do so weakly or less than the wild type.

By UniProt entry, the sequences of proteins in these tests, tags left out. Residues count along the entry.
UniProt Q14494, residues 104-772: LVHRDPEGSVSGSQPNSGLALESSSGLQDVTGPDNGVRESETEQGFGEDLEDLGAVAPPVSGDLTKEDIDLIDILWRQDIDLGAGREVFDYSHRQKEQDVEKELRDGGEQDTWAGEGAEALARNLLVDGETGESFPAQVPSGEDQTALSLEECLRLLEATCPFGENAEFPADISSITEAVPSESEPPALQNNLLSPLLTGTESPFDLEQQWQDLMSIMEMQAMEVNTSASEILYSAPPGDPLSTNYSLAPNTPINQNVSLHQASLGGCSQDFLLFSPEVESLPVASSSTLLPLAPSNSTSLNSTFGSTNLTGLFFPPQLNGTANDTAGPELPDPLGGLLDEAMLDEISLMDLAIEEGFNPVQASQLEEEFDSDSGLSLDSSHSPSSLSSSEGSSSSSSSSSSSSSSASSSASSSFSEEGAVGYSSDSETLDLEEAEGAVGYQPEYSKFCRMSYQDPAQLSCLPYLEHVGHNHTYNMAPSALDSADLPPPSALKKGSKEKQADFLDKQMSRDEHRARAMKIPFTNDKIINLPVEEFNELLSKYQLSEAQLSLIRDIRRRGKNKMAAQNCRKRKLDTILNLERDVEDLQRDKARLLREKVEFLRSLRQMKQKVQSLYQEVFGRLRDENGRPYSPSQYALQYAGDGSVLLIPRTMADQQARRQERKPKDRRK
UniProt P28482: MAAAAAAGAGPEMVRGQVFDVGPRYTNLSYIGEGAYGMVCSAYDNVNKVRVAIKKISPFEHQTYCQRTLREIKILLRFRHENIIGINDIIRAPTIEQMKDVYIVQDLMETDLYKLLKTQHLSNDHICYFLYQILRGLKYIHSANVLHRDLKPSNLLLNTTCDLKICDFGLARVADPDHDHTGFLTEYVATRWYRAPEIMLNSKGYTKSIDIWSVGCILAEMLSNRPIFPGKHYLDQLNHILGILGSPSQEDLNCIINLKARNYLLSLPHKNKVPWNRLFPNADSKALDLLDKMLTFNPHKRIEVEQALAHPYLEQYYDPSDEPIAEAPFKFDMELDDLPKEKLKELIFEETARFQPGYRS

Molecular target: NRF1^3xFLAG (FLAG-tagged NRF1; NF-E2-related factor 1, NFE2L1) (human) (UniProt Q14494)
Experiment: co-IP

Substance: ERK2 (42 kDa form of ERK1/2) (from UniProt P28482 1-360) (enzyme)
- binding: binds
